No constants are given. Whether binding was seen depends on the method and setting. In cells and extracts the contact can be indirect. Binding can be weak; no strength is given.

In publication doi:10.1101/2025.07.28.25332029 one finds binding data, which are given here for 1 substance.

Assay [1] concerns the target T1, CIDEC short isoform (CIDEC-S) (human) (UniProt Q96AQ7).
T1 sequence: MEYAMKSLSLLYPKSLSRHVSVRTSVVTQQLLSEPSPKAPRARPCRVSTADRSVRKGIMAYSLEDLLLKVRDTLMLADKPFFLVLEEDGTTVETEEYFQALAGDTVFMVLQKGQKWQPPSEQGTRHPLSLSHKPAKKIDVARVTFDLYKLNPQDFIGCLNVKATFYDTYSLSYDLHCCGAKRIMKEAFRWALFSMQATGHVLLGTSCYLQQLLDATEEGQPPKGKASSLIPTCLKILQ
As to the kind of experiment: co-IP.

A further assay deals with T2, CIDEA (human) (UniProt O60543).
T2 sequence: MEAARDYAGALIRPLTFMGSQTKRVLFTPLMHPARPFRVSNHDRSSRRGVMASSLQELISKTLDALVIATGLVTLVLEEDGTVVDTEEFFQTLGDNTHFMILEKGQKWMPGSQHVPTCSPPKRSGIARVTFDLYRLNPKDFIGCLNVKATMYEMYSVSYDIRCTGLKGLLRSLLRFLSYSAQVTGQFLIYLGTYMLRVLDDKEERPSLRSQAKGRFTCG
Kind of assay: co-IP.

As for “CIDEC long isoform (CIDEC-L), wild type (from UniProt A0A0A0MRY9)”, the binding result (in assay [1]; with CIDEA (human)) was “binds” throughout.
